The whole screen tested about 580,000 compounds, of which about 6,100 (1.1%) were called active. Inconclusive means that the source gave no clear call. Such entries were picked first, then a sample of the others. The call rests on the fitted dose curve; in most records, active means well fitted inhibition curve with a large enough effect; inconclusive means small, poorly fitted or top-dose-only effect, or another doubt; inactive means no such curve, though single readings can be large or run the other way. Where the call is inconclusive, the potency comes from a doubtful curve fit.
Molecular target: Polyunsaturated fatty acid lipoxygenase ALOX12 (Homo sapiens) (UniProt P18054)
Assay: Primary qHTS assay for inhibitors of human arachidonate 12S-lipoxygenase (ALOX12): Round 2
Conditions: purified 12hLO, xylenol orange hydroperoxide absorbance; activity change, negative = inhibition: at 108 µM (top of the series) unless noted
Summary of the method: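 Purified human 12hLO (150 nM final) in 25 mM Hepes, 0.01% Triton X-100, pH 7.0 was preincubated 15 min at room temperature with compound. Then 40 uM arachidonic acid was added, 30 min. Hydroperoxide was read by Fe-XO absorbance ratio 573/405 nm.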
On the % scale 0 is the no-effect control and ±100 the full control effect; potency means the concentration at half of the fitted maximal effect.

By UniProt entry, the sequences of proteins in these tests, tags left out. Where a name states a change or a piece, a line headed by the entry shows the natural chain unless it says otherwise.
UniProt P18054: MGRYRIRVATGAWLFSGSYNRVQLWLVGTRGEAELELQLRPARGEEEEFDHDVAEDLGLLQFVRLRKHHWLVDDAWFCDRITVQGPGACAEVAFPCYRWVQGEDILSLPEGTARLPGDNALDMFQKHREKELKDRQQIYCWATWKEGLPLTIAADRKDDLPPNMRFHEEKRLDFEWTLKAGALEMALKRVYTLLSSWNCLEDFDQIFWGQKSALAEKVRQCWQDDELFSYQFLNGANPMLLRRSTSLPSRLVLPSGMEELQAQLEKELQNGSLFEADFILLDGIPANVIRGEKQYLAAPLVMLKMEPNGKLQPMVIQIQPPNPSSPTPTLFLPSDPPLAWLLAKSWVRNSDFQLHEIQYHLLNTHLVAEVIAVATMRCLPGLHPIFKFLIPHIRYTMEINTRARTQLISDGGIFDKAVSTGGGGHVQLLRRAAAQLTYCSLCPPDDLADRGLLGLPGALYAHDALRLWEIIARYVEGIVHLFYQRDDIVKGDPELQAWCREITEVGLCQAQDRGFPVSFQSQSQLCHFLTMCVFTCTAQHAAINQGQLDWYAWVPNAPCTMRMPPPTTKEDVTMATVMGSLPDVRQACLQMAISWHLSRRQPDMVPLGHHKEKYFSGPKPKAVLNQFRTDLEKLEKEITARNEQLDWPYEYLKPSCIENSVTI

Structure (SMILES)	Potency	activity change, negative = inhibition
CC(C)c1cnc2c(c1SCC(=O)Nc1ccc(OC(F)(F)F)cc1)c(=O)n(C)c(=O)n2C	inactive	
COc1ccc(Br)cc1/C=N/n1c(COc2ccccc2)n[nH]c1=S	inactive	
COc1ccc(O)c(C(=O)c2cc(C#N)c(=O)n(-c3cc(C)c(Cl)cc3OC)c2)c1	inconclusive: 44.7 µM [inhibitor, partial curve, poor fit]	
COC(=O)c1ccc(/C=C(\C#N)C(=O)Nc2ccccc2C(=O)O)cc1	inconclusive: 79.4 µM [inhibitor, single point]	
O=C(O)c1cc(-c2cccs2)nn1-c1cccc(Cl)c1	inactive	
CCN(CC)CCOC(=O)c1ccc(NC(=O)c2nn(C)c3c2COc2ccccc2-3)cc1	inconclusive: 7.94 µM [inhibitor, full curve, poor fit]	
CCN(CC)S(=O)(=O)c1ccc2c(c1)nc(CCC(=O)O)n2CC	inconclusive: 112 µM [inhibitor, single point]	
Cc1cncc2cccc(S(=O)(=O)N3CCCN(C(=O)CN)C[C@@H]3C)c12	active: 4.32 µM	
COc1ccc(C(=O)N2CC(Oc3ccccc3-c3nc(-c4ccccc4)no3)C2)cc1	inactive	
Cc1ccc(C)c(N2CCN(c3ccc4cc(S(=O)(=O)N5CCC(C)CC5)ccc4n3)CC2)c1	active: 50.1 µM	
CC(NC(=O)/C(=C/c1cccc(Br)c1)NC(=O)c1ccco1)C(=O)O (configuration not stated)	inconclusive: 3.98 µM [inhibitor, full curve, poor fit]	
O=S(=O)(c1ccccc1)N(F)S(=O)(=O)c1ccccc1	inconclusive: 39.8 µM [inhibitor, partial curve, poor fit]	
Cc1ccc(NC(=O)c2cccnc2)cc1S(=O)(=O)N(C)C	inactive	
CC(=O)c1ccc(OC(=O)c2cnc(C)cn2)cc1	inconclusive: 10 µM [inhibitor, full curve, poor fit]	
CCOC(=O)c1sc(Nc2ccc(C(C)=O)cc2)nc1C(F)(F)F	inconclusive: 100 µM [inhibitor, single point]	
COc1cccc(C(=O)/C(=C/c2cccnc2)c2nc3ccccc3o2)c1	inconclusive: 50.1 µM [inhibitor, partial curve, poor fit]	
Cn1nccc1NC(=O)c1nccnc1C(=O)O	inactive	
Cc1cc2cc(CCNC(=O)c3ccc(Br)o3)c(=O)[nH]c2cc1C	inconclusive: 39.8 µM [inhibitor, single point]	
CC(C)(C)Cc1c(-c2cccc(Cl)c2)nc2ccc(Cl)cn12	inconclusive: 89.1 µM [inhibitor, partial curve, poor fit]	
O=C(Nc1ccc2ccccc2c1)C(=O)c1ccccc1F	inconclusive: 44.7 µM [inhibitor, partial curve, poor fit]	
CC(C)(C)c1ccc(S(=O)(=O)O/N=C2/CCCCC2c2ccc([N+](=O)[O-])cc2[N+](=O)[O-])cc1 (configuration not stated)	inconclusive: 35.5 µM [inhibitor, partial curve, poor fit]	

Structure (SMILES)	Potency	activity change, negative = inhibition
CSc1cccc(NC(=O)COC(=O)c2ccccn2)c1	inconclusive: 2.51 µM [inhibitor, full curve, poor fit]	
CCc1cccc(C)c1NC(=O)COC(=O)CNS(=O)(=O)/C=C/c1ccccc1	inactive	
CC1(C(=O)NS(=O)(=O)c2ccc(Cl)cc2)CCN1C(=O)Cc1cccs1 (configuration not stated)	inconclusive: 63.1 µM [inhibitor, partial curve, poor fit]	
COC(=O)C1=C(C)N(C2CC2)C(=S)NC1c1cccs1 (configuration not stated)	inconclusive: 141 µM [inhibitor, partial curve, poor fit]	
COc1ccc(N(C(=O)c2snc(C(N)=O)c2N)C(C(=O)NCc2ccccc2)c2ccc(O)cc2)cc1OC (configuration not stated)	inactive	
Cn1c(N2CCC(C(N)=O)CC2)nc2c1c(=O)n(Cc1cccc(Br)c1)c(=O)n2C	inconclusive: 50.1 µM [inhibitor, partial curve, poor fit]	
COc1ccc(N(CC(=O)Nc2ccc(C)c(C)c2)S(=O)(=O)c2c(C)nn(C)c2C)cc1	inconclusive: 2.82 µM [inhibitor, full curve, poor fit]	
Cc1cc(OCC(=O)Nc2ccc3[nH]ncc3c2)ccc1Cl	inactive	
Clc1cc2nc[nH]c2cc1Cl	inactive	
N#Cc1ccccc1-c1nc(NCCN2CCOCC2)c2ccccc2n1	inconclusive: 31.6 µM [inhibitor, partial curve]	
N#Cc1nc(-c2ccc(Cl)cc2)oc1NCc1ccc(Cl)cc1	inconclusive: 31.6 µM [inhibitor, partial curve, poor fit]	
O=C1CCCN1CCCn1ccnc1-c1cc2n(n1)CCCNC2	inconclusive: 7.08 µM [inhibitor, full curve, poor fit]	
COC(=O)c1c(NC(=O)Cn2cnc([N+](=O)[O-])n2)sc2c1CCC(C)C2 (configuration not stated)	inconclusive: 44.7 µM [inhibitor, partial curve]	
COc1ccccc1NC(=O)N1CCC(N2C(=O)C3(CCCCC3)C2c2ccncc2)CC1 (configuration not stated)	inactive	
O=S1(=O)N=C(N/N=C/c2ccccn2)c2ccccc21	inactive	
COc1ccc(Cn2c(SCc3ccccc3C)nc3cc(OC)c(OC)cc3c2=N)cc1	inconclusive: 100 µM [inhibitor, single point]	
COc1ccccc1NS(=O)(=O)c1ccc(N/N=C(\C)C(C)C)c([N+](=O)[O-])c1	inactive	
C#CCOCCOCCOCCNc1nc(N2CCN(C(=O)C([C@@H](C)CC)n3cc(C(N)COC(=O)C(F)(F)F)nn3)CC2)nc(N2CCN(C(=O)C([C@@H](C)CC)n3cc(C(N)CC(C)C)nn3)CC2)n1 (some centres not stated)	inconclusive: 7.08 µM [inhibitor, full curve]	
Cc1oc2ccc(O)c(CN3CCN(C)CC3)c2c1C(=O)Nc1cccc(Cl)c1C		inconclusive: -34.9% [inhibitor]
CCC(C)[C@H](N)c1cn([C@@H](Cc2cc3ccccc3[nH]2)C(=O)N2CCNCC2)nn1 (some centres not stated)	inactive	
Cc1ccc2c(c1)c(=O)c1ccccc1n2CCCC(=O)Nc1cc(Cl)ccc1C	inconclusive: 35.5 µM [inhibitor, partial curve]	

Taken from above.
Under Potency, COc1ccccc1NS(=O)(=O)c1ccc(N/N=C(\C)C(C)C)c([N+](=O)[O-])c1 is listed with inactive
Under Potency, O=C1CCCN1CCCn1ccnc1-c1cc2n(n1)CCCNC2 is listed with inconclusive: 7.08 µM [inhibitor, full curve, poor fit]
Under Potency, CC1(C(=O)NS(=O)(=O)c2ccc(Cl)cc2)CCN1C(=O)Cc1cccs1 (configuration not stated) is listed with inconclusive: 63.1 µM [inhibitor, partial curve, poor fit]

Reference: PubChem BioAssay AID1671190 (National Center for Advancing Translational Sciences (NCATS), 2021)
